Data from paper PMC9551036, “A selective and orally bioavailable VHL-recruiting PROTAC achieves SMARCA2 degradation in vivo” (Nature Communications, 2022).
“And” between values parts separate entries of the source, which are not always exact repeats. Equal entries are not always repeated. The source gives many values for each of these; only a part stands here.

System: panel of cell lines (A549, HCC-364, HCC-515, HCC4006, KYSE-30, LU99, LXFA_629L, LXFA_923L, LXFL_529L, LXFL_1121L, MP38, NCI-H23, NCI-H1355, OV-90, SK-MEL-5 …)
Assay: Cell viability assay (CellTiter Glo) in a panel of cell lines;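 for % Viability: percent of DMSO-treated control cells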
Format: cell-based, human
Procedure: 500–2000 cells were seeded in white, clear bottom 96-well plates (Corning or Perkin Elmer) in 180–200 µl medium per well. The next day, compounds were added using a digital dispenser and a T0 sample was measured for reference. Cells were incubated for 144–192 h, and viability (luminescence) was measured using CellTiter Glo or CellTiter Glo 2.0 (Promega) according to manufacturer’s instructions after equilibrating cells and reagents at room temperature and 10–20 min incubation time while shaking.

Cc1ncsc1-c1ccc(C(CCC(C)CCN2CCC(c3ccc4c(c3)n(C3CCCC3)c3nc(=O)c5c(Br)cccc5n43)CC2)NC(=O)C2CC(O)CN2C(=O)C(NC(=O)C2(F)CC2)C(C)(C)C)cc1 (centres unmarked) [ACBI2]
Bottom (% Viability, four-parameter fit) (A549): 13.02% | Top (% Viability, four-parameter fit) (A549): 116.8% | % Viability (A549, log10 conc -5 mol/l): -0.1374% and 2.57% | % Viability (A549, log10 conc -5.50031 mol/l): 28.8669% and 38.9325% | % Viability (A549, log10 conc -6 mol/l): 40.1754% | % Viability (A549, log10 conc -6.50031 mol/l): 36.282% | % Viability (A549, log10 conc -9 mol/l): 107.686% and 104.787% | % Viability (A549, log10 conc -9.50031 mol/l): 114.76% and 105.547% | % Viability (A549, log10 conc -10 mol/l): 109.903% and 103.691% | % Viability (A549, log10 conc -10.5003 mol/l): 108.588% and 107.269% | Bottom (% Viability, four-parameter fit) (HCC4006): 38.95% | Top (% Viability, four-parameter fit) (HCC4006): 113.9% | % Viability (HCC4006, log10 conc -5.30103 mol/l): 39.1357% and 40.8034% | % Viability (HCC4006, log10 conc -5.90309 mol/l): 34.8567% | % Viability (HCC4006, log10 conc -6.50446 mol/l): 58.4669% | % Viability (HCC4006, log10 conc -8.91364 mol/l): 120.273% and 113.03% | % Viability (HCC4006, log10 conc -9.5157 mol/l): 111.777% and 109.936% | % Viability (HCC4006, log10 conc -10.1175 mol/l): 114.662% and 106.899% | Bottom (% Viability, four-parameter fit) (HCC-364): 16.23% | Top (% Viability, four-parameter fit) (HCC-364): 101.8% | % Viability (HCC-364, log10 conc -5.30103 mol/l): 20.2173% and 17.8517% | % Viability (HCC-364, log10 conc -5.90309 mol/l): 10.9947% | % Viability (HCC-364, log10 conc -6.50446 mol/l): 15.4098% | % Viability (HCC-364, log10 conc -8.91364 mol/l): 106.701% and 101.727% | % Viability (HCC-364, log10 conc -9.5157 mol/l): 102.299% and 102.94% | % Viability (HCC-364, log10 conc -10.1175 mol/l): 99.5144% and 99.0216% | Bottom (% Viability, four-parameter fit) (HCC-515): 20.2% | Top (% Viability, four-parameter fit) (HCC-515): 91.57% | % Viability (HCC-515, log10 conc -6 mol/l): 21.5991% | % Viability (HCC-515, log10 conc -6.50031 mol/l): 25.6456% | % Viability (HCC-515, log10 conc -9 mol/l): 65.5237% and 67.2723% | % Viability (HCC-515, log10 conc -9.50031 mol/l): 78.2414% and 86.6266% | % Viability (HCC-515, log10 conc -10 mol/l): 81.2712% and 94.2405% | % Viability (HCC-515, log10 conc -10.5003 mol/l): 79.5343% and 99.7323% | Top (% Viability, four-parameter fit) (KYSE-30): 102.3% | % Viability (KYSE-30, log10 conc -5.30103 mol/l): 1.425% and 7.245% | % Viability (KYSE-30, log10 conc -5.90309 mol/l): 81.6211% | % Viability (KYSE-30, log10 conc -6.50446 mol/l): 82.9463% | % Viability (KYSE-30, log10 conc -8.91364 mol/l): 106.247% and 103.276% | % Viability (KYSE-30, log10 conc -9.5157 mol/l): 106.171% and 105.016% | % Viability (KYSE-30, log10 conc -10.1175 mol/l): 102.894% and 101.529% | Bottom (% Viability, four-parameter fit) (LU99): 1.403% | Top (% Viability, four-parameter fit) (LU99): 113.7% | % Viability (LU99, log10 conc -5.30103 mol/l): -0.3005% and -0.1061% | % Viability (LU99, log10 conc -5.90309 mol/l): 11.7371% and 3.8963% | % Viability (LU99, log10 conc -6.50446 mol/l): 18.0569% | % Viability (LU99, log10 conc -8.91364 mol/l): 117.53% and 116.862% | % Viability (LU99, log10 conc -9.5157 mol/l): 115.098% and 115.309% | % Viability (LU99, log10 conc -10.1175 mol/l): 103.339% and 106.134% | Bottom (% Viability, four-parameter fit) (LXFA_629L): 4.408% | Top (% Viability, four-parameter fit) (LXFA_629L): 103.2% | % Viability (LXFA_629L, log10 conc -5 mol/l): -0.1579% and -0.1591% | % Viability (LXFA_629L, log10 conc -5.50031 mol/l): 3.766% and 1.726% | % Viability (LXFA_629L, log10 conc -6 mol/l): 11.0009% | % Viability (LXFA_629L, log10 conc -6.50031 mol/l): 19.3352% | % Viability (LXFA_629L, log10 conc -9 mol/l): 96.6536% and 97.2919% | % Viability (LXFA_629L, log10 conc -9.50031 mol/l): 103.522% and 98.2665% | % Viability (LXFA_629L, log10 conc -10 mol/l): 102.461% and 99.7874% | % Viability (LXFA_629L, log10 conc -10.5003 mol/l): 92.1766% and 98.0864% | Bottom (% Viability, four-parameter fit) (LXFA_923L): 5.956% | Top (% Viability, four-parameter fit) (LXFA_923L): 119.4% | % Viability (LXFA_923L, log10 conc -5 mol/l): -0.1442% and -0.0545% | % Viability (LXFA_923L, log10 conc -5.50031 mol/l): 10.2166% and 18.3827% | % Viability (LXFA_923L, log10 conc -6 mol/l): 20.0341% | % Viability (LXFA_923L, log10 conc -6.50031 mol/l): 26.0427% | % Viability (LXFA_923L, log10 conc -7 mol/l): 27.9454% and 28.6792% | % Viability (LXFA_923L, log10 conc -9 mol/l): 83.2369% and 88.6338% | % Viability (LXFA_923L, log10 conc -9.50031 mol/l): 100.595% and 97.3381%
